Record: PubChem BioAssay AID602196 (INSERM, 2012)
Aim: 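Genes whose knock-down alters cisplatin killing of lung cancer cells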. System: human A549 lung cancer cells. Reagents: siRNA pair against human genes. Time to read-out: 48 h transfection before cisplatin; time from cisplatin to read-out not stated. Challenge: cisplatin at a dose killing half of control-siRNA cells; exact dose and duration not given. Read-out: 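Cisplatin cell death as a shift from the 50% death seen with control siRNA; siRNAs toxic or growth-blocking alone scored 0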. Direction: two-siRNA summed score (-2 to +2): higher = both siRNAs protect from cisplatin killing; -2 means both sensitise; mean protection from cisplatin (shift in death): higher = protection from cisplatin killing. Call rule: 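Each siRNA scores 0 if harmful alone by LDH or WST-1, otherwise +1 if it reduces and -1 if it increases cisplatin killing; a gene is active when both siRNAs agree (sum +2 or -2)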. Calls: active = both siRNAs shift cisplatin killing the same way; inactive = no consistent shift, or siRNA harmful alone.
In all, the deposit lists about 23,000 reagents; shown is a random part of them. 455 of all reagents (2%) count as active. 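Active includes both protection and sensitisation; some change values fall well beyond the stated -50 to +50 range.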 Not all columns of the deposit are shown. Not given: the amount of reagent.

ANO1 (GeneID 55107)
- two-siRNA summed score (-2 to +2): 0
- mean protection from cisplatin (shift in death) (%): 0
- call: inactive

IGFBP1 (GeneID 3484)
- two-siRNA summed score (-2 to +2): -1
- mean protection from cisplatin (shift in death) (%): -12.1
- call: inactive

GRK6 (GeneID 2870)
- two-siRNA summed score (-2 to +2): -1
- mean protection from cisplatin (shift in death) (%): -7.4
- call: inactive

SRSF7 (GeneID 6432)
- two-siRNA summed score (-2 to +2): 1
- mean protection from cisplatin (shift in death) (%): 17.6
- call: inactive

P2RX5 (GeneID 5026)
- two-siRNA summed score (-2 to +2): 1
- mean protection from cisplatin (shift in death) (%): 14.1
- call: inactive

LOC441208
- two-siRNA summed score (-2 to +2): 0
- mean protection from cisplatin (shift in death) (%): -2.4
- call: inactive

OXA1L (GeneID 5018)
- two-siRNA summed score (-2 to +2): 0
- mean protection from cisplatin (shift in death) (%): 18.7
- call: inactive

EXOC3 (GeneID 11336)
- two-siRNA summed score (-2 to +2): 1
- mean protection from cisplatin (shift in death) (%): 10.1
- call: inactive

KCNJ14 (GeneID 3770)
- two-siRNA summed score (-2 to +2): 0
- mean protection from cisplatin (shift in death) (%): 13.3
- call: inactive

ZRANB1 (GeneID 54764)
- two-siRNA summed score (-2 to +2): -1
- mean protection from cisplatin (shift in death) (%): 10.8
- call: inactive

RPL26 (GeneID 6154)
- two-siRNA summed score (-2 to +2): 0
- mean protection from cisplatin (shift in death) (%): 20.9
- call: inactive

ARPIN (GeneID 348110)
- two-siRNA summed score (-2 to +2): 0
- mean protection from cisplatin (shift in death) (%): -0.7
- call: inactive

TYRP1 (GeneID 7306)
- two-siRNA summed score (-2 to +2): -1
- mean protection from cisplatin (shift in death) (%): -12
- call: inactive

LNX2 (GeneID 222484)
- two-siRNA summed score (-2 to +2): 0
- mean protection from cisplatin (shift in death) (%): 15
- call: inactive

MTURN (GeneID 222166)
- two-siRNA summed score (-2 to +2): 0
- mean protection from cisplatin (shift in death) (%): 0.2
- call: inactive

SYNJ1 (GeneID 8867)
- two-siRNA summed score (-2 to +2): 0
- mean protection from cisplatin (shift in death) (%): -2.5
- call: inactive

XPNPEP2 (GeneID 7512)
- two-siRNA summed score (-2 to +2): 0
- mean protection from cisplatin (shift in death) (%): -8.3
- call: inactive

VSTM2B-DT (GeneID 284395)
- two-siRNA summed score (-2 to +2): 1
- mean protection from cisplatin (shift in death) (%): 2.8
- call: inactive

FXYD1 (GeneID 5348)
- two-siRNA summed score (-2 to +2): 0
- mean protection from cisplatin (shift in death) (%): -4.8
- call: inactive

LOC391445
- two-siRNA summed score (-2 to +2): 1
- mean protection from cisplatin (shift in death) (%): 13.6
- call: inactive

TNC (GeneID 3371)
- two-siRNA summed score (-2 to +2): 1
- mean protection from cisplatin (shift in death) (%): -1.4
- call: inactive

TOX4 (GeneID 9878)
- two-siRNA summed score (-2 to +2): 0
- mean protection from cisplatin (shift in death) (%): 2.2
- call: inactive

NUAK2 (GeneID 81788)
- two-siRNA summed score (-2 to +2): 2
- mean protection from cisplatin (shift in death) (%): 20.5
- call: active

PDIA3 (GeneID 2923)
- two-siRNA summed score (-2 to +2): -1
- mean protection from cisplatin (shift in death) (%): -10.8
- call: inactive

NABP2 (GeneID 79035)
- two-siRNA summed score (-2 to +2): 0
- mean protection from cisplatin (shift in death) (%): -4.1
- call: inactive

PTPRC (GeneID 5788)
- two-siRNA summed score (-2 to +2): 0
- mean protection from cisplatin (shift in death) (%): 4.3
- call: inactive

LOC440817
- two-siRNA summed score (-2 to +2): 0
- mean protection from cisplatin (shift in death) (%): 18.4
- call: inactive

CCDC33 (GeneID 80125)
- two-siRNA summed score (-2 to +2): 0
- mean protection from cisplatin (shift in death) (%): 2.2
- call: inactive

LOC442696
- two-siRNA summed score (-2 to +2): 0
- mean protection from cisplatin (shift in death) (%): 8.2
- call: inactive

KRTAP4-2 (GeneID 85291)
- two-siRNA summed score (-2 to +2): 0
- mean protection from cisplatin (shift in death) (%): 8.8
- call: inactive

SCAND3 (GeneID 114821)
- two-siRNA summed score (-2 to +2): 0
- mean protection from cisplatin (shift in death) (%): 1
- call: inactive
